Data reported in patent US20230310702A1, “SELF-ASSEMBLING PEPTIDES, PREPARATION METHODS, SELF-ASSEMBLING PEPTIDE FORMULATIONS AND USE” (Success Bio-Tech Co., Ltd., priority 2020, published 2023).
Some entries share one result that the patent states for a list of compounds.

Assay: Rheological property detection (storage modulus of triggered gel)
Assay type: physicochemical
Conditions: after PBS triggered the gelation; 37° C., frequency scanning 0.1 hz-10 hz
Experimental: Peptide solutions with different concentrations were prepared, and an appropriate amount of 10×PBS was added such that the final PBS concentration of the solution was 1×, after the solution was in contact with PBS to be triggered to be gel, the gel was taken out slowly with a spoon and placed onto a rheometer plate. A 40 mm plate was placed leaving the gap of about 450 µm, and kept at 37° C. for 5 minutes under a pressure of 1 pa, and frequency scanning was at 0.1 hz-10 hz. […] The highest concentration of the solution was set with the reference to the highest concentration at which a gel will not form immediately when the peptide was fully dissolved, according to which peptide solutions with a serial of diluted concentrations were prepared to perform storage modulus detections. For peptides represented by ① and ② in which the head and the tail are Pro, the storage modulus were able to reach 1000pa or higher after the PBS triggered the gelation, whereas before gelation, the solution can also maintain good fluidity.

Substance	storage modulus
AC-Pro-Arg-Val-Asp-Val-Arg-Val-Asp-Pro-amide (PRVDVRVDP; N-acetyl, C-amide; The sequence is synthesized.) [compound ①]	≥ 1000 pa
AC-Pro-Lys-Val-Glu-Val-Lys-Val-Glu-Pro-amide (PKVEVKVEP; N-acetyl, C-amide; The sequence is synthesized.) [compound ②]	≥ 1000 pa
